Among all 320,000 compounds or so, about 22,000 (6.9%) were called active. Inconclusive results, whose numbers are uncertain, are shown with a selection of clear calls. The call rests on the fitted dose curve; in most records, active means well fitted inhibition curve with a large enough effect; inconclusive means small, poorly fitted or top-dose-only effect, or another doubt; inactive means no such curve, though single readings can be large or run the other way. Potencies of inconclusive entries are doubtful fits and often do not repeat.
Test: Primary qHTS for delayed death inhibitors of the malarial parasite plastid, 96 hour incubation
Conditions: P. falciparum luciferase reporter growth; series mostly up to 28.7 µM; activity change, negative = inhibition: at the top concentration
Outline: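 Infected RBCs, 2% Hct / 0.05% parasitemia final; luciferase-reporter P. falciparum; cpd 96 h, 37 C, 5% CO2; luciferase detection reagent; luminescence.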
In the case of `C=CCn1c(SCC(=O)Nc2cccc(OC)c2)nnc1-c1cccnc1`, the Potency is reported as inconclusive: 18.5 µM [inhibitor, single point].
In the case of `Cc1oc(-c2ccc(-c3ccccc3)cc2)nc1CN(CCO)C(C)C`, the Potency is reported as inconclusive: 11.7 µM [inhibitor, single point].
With `Cc1ccccc1Nc1c([N+](=O)[O-])ccc2nonc12` the “activity change, negative = inhibition” value was inactive: 37.9%.
In the case of `COc1ccc(C)cc1NC(=O)C1CCCN(S(=O)(=O)c2ccc3c(c2)CCCN3C(C)=O)C1` (configuration not stated), the Potency is reported as inconclusive: 5.22 µM [inhibitor, partial curve, poor fit].
In the case of `Cc1nn2c(N3CCN(C)CC3)cc(C(C)(C)C)nc2c1-c1ccccc1`, the Potency is reported as active: 3.29 µM.
With `Cc1cccc(/C=N/NC(=O)c2ccc(Br)cc2)c1` the “activity change, negative = inhibition” value was inactive: 32.4%.
For `COc1cc(OC)cc(C(=O)NC(C(=O)N2CCc3ccccc3C2)C(C)C)c1` (configuration not stated), the Potency was inconclusive: 18.5 µM [inhibitor, single point].
With `Cc1ccc(C(=O)Oc2ccc(C(=O)COC(=O)C3CC(=O)N(Cc4ccco4)C3)cc2)cc1` (configuration not stated) the Potency was inconclusive: 20.8 µM [inhibitor, partial curve, poor fit].
For `CS(=O)(=O)N1N=C(c2ccc(Br)cc2)CC1c1cccs1` (configuration not stated), the “activity change, negative = inhibition” value was inactive: 83.4%.
With `CC12CC3CC(C)(C1)CC(C(=O)NCc1cccnc1)(C3)C2` the Potency was active: 3.7 µM.
In the case of `O=C1c2ccccc2NC(c2ccc(O)cc2)N1Cc1ccco1` (configuration not stated), the Potency is reported as inconclusive: 1.85 µM [inhibitor, partial curve, poor fit].
For `O=C(c1cc2nc(-c3ccco3)cc(C(F)(F)F)n2n1)N1CCc2ccccc2C1`, the Potency was inconclusive: 18.5 µM [inhibitor, single point].
With `O=C(CN1CCCCC1)Nc1ccc(NC(=O)c2ccc(Cl)cc2)cc1Cl` the Potency was inconclusive: 10.4 µM [inhibitor, single point].
With `COc1cccc(CNC(=O)C2CCC(=O)N(C3CC3)C2)c1OC` (configuration not stated) the Potency was inconclusive: 9.28 µM [inhibitor, partial curve, poor fit].
With `Cc1cc(CNC(=O)c2ccc3oc(C(C)C)nc3c2)nn1C` the “activity change, negative = inhibition” value was inactive: 2.44%.
With `Cc1ccc(C(=O)C[n+]2ccc(Cc3ccccc3)cc2)cc1` the Potency was active: 8.28 µM.
For `CC1CCN(c2ccc(C(=O)N3CCOCC3)cc2[N+](=O)[O-])CC1`, the Potency was inconclusive: 8.28 µM [inhibitor, partial curve, poor fit].
In the case of `CN(C(=O)CCCN1C(=O)c2ccccc2C1=O)C1CCCCC1`, the “activity change, negative = inhibition” value is reported as inactive: -21.7%.
With `COC(=O)c1cc(C(=O)Nc2nc3ccccc3[nH]2)cc([N+](=O)[O-])c1` the Potency was inconclusive: 4.15 µM [inhibitor, full curve].
In the case of `Cc1ccc(-n2c3c(c(=O)[nH]c2=O)C(NS(=O)(=O)c2ccc(Cl)cc2)(C(F)(F)F)C(=O)N3)cc1` (configuration not stated), the Potency is reported as active: 13.1 µM.
In the case of `O=C(CNc1cccc(Cl)c1)c1ccc(Cl)cc1`, the Potency is reported as inconclusive: 9.28 µM [inhibitor, partial curve].
With `CCCn1c(=O)c2ccccc2n2c(Sc3nnnn3-c3ccccc3)nnc12` the Potency was inconclusive: 8.28 µM [inhibitor, partial curve, poor fit].
For `Cc1ccc2[nH]c(=O)c(CN(Cc3cccs3)C(=S)NCc3ccco3)cc2c1`, the “activity change, negative = inhibition” value was inactive: 29.7%.
For `COc1cc(/C=N/NC(=O)c2cccnc2)ccc1OC(=O)c1cccc(Br)c1`, the Potency was inconclusive: 13.1 µM [inhibitor, partial curve].
With `CC1(C)CC(NC(=O)c2ccc(Br)o2)CC(C)(C)N1` the “activity change, negative = inhibition” value was inactive: 1.98%.
For `CCN(CC)Cc1c(C(=O)N/N=C/c2ccc(C)o2)nnn1-c1nonc1N`, the “activity change, negative = inhibition” value was inactive: 22.3%.
For `O=C(CSc1nncn1-c1ccccc1)c1c[nH]c2ccccc12`, the Potency was inconclusive: 16.5 µM [inhibitor, single point].
For `CC(C)CC1Nc2ncnc(N3CCN(c4ccccn4)CC3)c2N(Cc2ccc(Br)cc2)C1=O` (configuration not stated), the Potency was active: 8.28 µM.
For `Cc1nc2ccc(S(=O)(=O)NC(C(=O)Nc3nc4ccc(Cl)cc4s3)C(C)C)cc2s1` (configuration not stated), the Potency was inconclusive: 18.5 µM [inhibitor, single point].
For `CC(=O)Nc1ccc2c(CSc3nncs3)cc(=O)oc2c1`, the Potency was inconclusive: 10.4 µM [inhibitor, partial curve, poor fit].
With `CCc1c(O)nc(SCC(=O)Nc2ccc(OC)cc2)n(C2CCCCC2)c1=O` the Potency was inconclusive: 1.85 µM [inhibitor, partial curve, poor fit].
For `CCCCC1S/C(=N/N=C/c2cccs2)NC1=O` (configuration not stated), the Potency was inconclusive: 20.8 µM [inhibitor, partial curve, poor fit].
With `O=C1CCCC(O)=C1C(C#Cc1ccccc1)C1=C(O)CCCC1=O` the “activity change, negative = inhibition” value was inactive: 39.1%.
In the case of `CC(O)CNc1nc2c(c(=O)n(Cc3ccc(Cl)c(Cl)c3)c(=O)n2C)n1C` (configuration not stated), the Potency is reported as inconclusive: 6.57 µM [inhibitor, partial curve].
For `Cc1onc(-c2ccccc2)c1CNS(=O)(=O)c1cccc(Br)c1`, the “activity change, negative = inhibition” value was inactive: 18.5%.
With `CCc1cccc(CC)c1NC(=S)NCc1ccc2[nH]c(C)cc2c1` the Potency was active: 2.62 µM.
With `Cc1cc(C=C2C(=O)N(C)C(=S)N(C)C2=O)c(C)n1C1CCCC1` the Potency was inconclusive: 18.5 µM [inhibitor, single point].
For `Cc1ccc(NC(=O)CN2C(=O)C(=O)N(C3CCCC3)C2=O)c(Cl)c1`, the Potency was inconclusive: 0.586 µM [inhibitor, full curve, poor fit].
For `O=S(=O)(c1ccc(Br)cc1)N1CCCC1c1nc2ccccc2s1` (configuration not stated), the Potency was inconclusive: 18.5 µM [inhibitor, single point].
In the case of `CCNC(=O)N(CCOC)CC1CCCN(C2Cc3ccccc3C2)C1` (configuration not stated), the Potency is reported as inconclusive: 16.5 µM [inhibitor, single point].
For `COc1cc(C(=O)NCC(=O)OC(C)C(=O)Nc2ncc(Cl)cc2Cl)cc(OC)c1OC` (configuration not stated), the “activity change, negative = inhibition” value was inactive: 11%.
With `COc1ccc(-c2oc3ncn(Cc4ccco4)c(=N)c3c2-c2ccc(OC)cc2)cc1` the Potency was active: 6.57 µM.
For `COc1ccccc1N1CCN(C(=O)c2cc(-c3cccs3)on2)CC1`, the “activity change, negative = inhibition” value was inactive: 2.88%.
In the case of `Cc1ccc(CNC(=O)CS(=O)(=O)Cc2nc(-c3ccc(C)cc3)oc2C)cc1`, the Potency is reported as inconclusive: 18.5 µM [inhibitor, single point].
With `O=C(c1ccc(Br)o1)N1CCN(Cc2ccc3c(c2)OCO3)CC1` the Potency was inconclusive: 18.5 µM [inhibitor, single point].
For `CCOC(=O)c1c(-c2ccccc2)cn2c(C)cc(C)nc12`, the “activity change, negative = inhibition” value was inactive: 58.2%.
In the case of `CS(=O)(=O)N(CC(=O)Nc1ccc(S(=O)(=O)N2CCOCC2)cc1)c1cccc(F)c1`, the “activity change, negative = inhibition” value is reported as inactive: 41.1%.
In the case of `COc1ccc(C)cc1NC(=O)CSc1nnc(-c2cc(C)[nH]n2)n1N`, the “activity change, negative = inhibition” value is reported as inactive: -24.7%.
In the case of `COc1ccc(C(=O)CC(=O)C(=O)Nc2cccc(C(C)=O)c2)cc1`, the “activity change, negative = inhibition” value is reported as inactive: 7.14%.
In the case of `COc1cccc(OCCNc2cc(N3CCOCC3)ccc2[N+](=O)[O-])c1`, the Potency is reported as active: 0.415 µM.
With `Cc1cc(C)n(CCO)c(=O)n1` the Potency was active: 2.33 µM.
With `COc1ccc(C(=O)N/N=C(\C)c2ccc(NC(=O)Cc3ccccc3)cc2)c(OC)c1` the Potency was inconclusive: 18.5 µM [inhibitor, single point].
For `Cc1ccc(N2C(=O)/C(=C/c3cccnc3)SC2=S)cc1`, the “activity change, negative = inhibition” value was inactive: -29.2%.
In the case of `CN(c1cccc(Cl)c1)S(=O)(=O)c1cccc(C(=O)Nc2ccc3c(c2)CCC3)c1`, the Potency is reported as inconclusive: 18.5 µM [inhibitor, single point].
For `O=C(c1cc(-c2ccccc2Cl)on1)N1CCCC1`, the “activity change, negative = inhibition” value was inactive: 324%.
For `O=C1CSC(c2ccccn2)N1c1ccc(C(F)(F)F)cc1` (configuration not stated), the Potency was inconclusive: 13.1 µM [inhibitor, partial curve].
With `COc1ccc(CN(C)CC2CCCN(CCc3ccccc3C)C2)cc1O` (configuration not stated) the Potency was inconclusive: 18.5 µM [inhibitor, single point].
With `CCOc1ccc(-n2c(SCC(=O)c3c(N)n(C)c(=O)n(C)c3=O)nnc2-c2cccnc2)cc1` the Potency was inconclusive: 4.15 µM [inhibitor, single point].
For `O=C(Nc1cc(SCCO)cc([N+](=O)[O-])c1)c1ccc(Br)o1`, the Potency was inconclusive: 18.5 µM [inhibitor, single point].
In the case of `Cc1cccnc1NC(=O)c1ccc2c(c1)OCCO2`, the “activity change, negative = inhibition” value is reported as inactive: 158%.
With `Nc1nc(-c2ccccn2)nc(N)c1Cc1ccccc1F` the Potency was active: 5.22 µM.
With `CCN(CC)S(=O)(=O)c1ccc(NS(=O)(=O)c2ccc3oc(=O)[nH]c3c2)cc1` the “activity change, negative = inhibition” value was inactive: -14.3%.
With `CC1CCCC(NC(=O)CN2CCN(S(=O)(=O)c3cccs3)CC2)C1C` (configuration not stated) the “activity change, negative = inhibition” value was inactive: -16.7%.
In the case of `NC(=S)Nc1ncc(CCN2CCOCC2)c(-c2ccc(F)cc2)n1`, the Potency is reported as inconclusive: 18.5 µM [inhibitor, single point].
With `CCCC1Cc2c(sc(NC(=S)NC(=O)c3ccccc3)c2C#N)CO1` (configuration not stated) the Potency was inconclusive: 18.5 µM [inhibitor, single point].
With `Cc1[nH]c(=O)c(C#N)c(C)c1Cc1ccc(Cl)cc1Cl` the Potency was inconclusive: 14.7 µM [inhibitor, single point].
In the case of `CC(NC(=O)C1CCCN(C(=O)c2ccc(Cl)cc2)C1)c1cccc(C(F)(F)F)c1` (configuration not stated), the Potency is reported as inconclusive: 10.4 µM [inhibitor, partial curve].
With `CCCOc1ccc(C(=O)NNC(=S)NC(C)=O)cc1` the Potency was active: 0.329 µM.
For `COc1ccccc1NC(=O)c1cnc(SC)nc1`, the “activity change, negative = inhibition” value was inactive: 12.2%.
For `O=C(CSc1ccsc1[N+](=O)[O-])NCc1ccco1`, the Potency was inconclusive: 9.28 µM [inhibitor, single point].
In the case of `O=C1CN(C(=O)CSc2nc(-c3ccc(Cl)cc3)cs2)c2ccccc2N1`, the Potency is reported as inconclusive: 0.657 µM [inhibitor, full curve, poor fit].
With `Cc1c(CCC(=O)O)c(=O)oc2cc3occ(-c4ccc(Cl)cc4)c3cc12` the Potency was inconclusive: 10.4 µM [inhibitor, single point].

Source: PubChem BioAssay AID504834 (National Center for Advancing Translational Sciences (NCATS), 2011)
On the % scale 0 is the no-effect control and ±100 the full control effect; potency means the concentration at half of the fitted maximal effect.
